PubChem BioAssay AID1259308, NCATS – 2017
Here is an unselected part of about 59,000 reagents. About 1,510 of all reagents (2.6%) count as active. 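Calls use total luciferase alone and ignore viability, so some active siRNAs may act by altering cell number.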 The numbers tell different reagents against one gene apart.

Assay: 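Knock-downs that increase output of a recombinant reporter protein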 (primary screen)
Cell system: human HEK293 embryonic kidney cells stably expressing firefly luciferase (HEK-CMV-Luc2-Hygro)
Reagent: single siRNA against human genes, 0.8 pmol siRNA per well
Time to read-out: 72 h
Measurement: 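Reporter luminescence and viable-cell signal on separate replicate plates, given as percent of non-targeting control and median/MAD z-scores, plus per-cell luciferase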
Reading the numbers: total luciferase, z-score and total luciferase, % of control: higher = more reporter protein produced; luciferase per cell, z-score: higher = more reporter output per viable cell; viable cells, % of control: higher = more viable cells
Call rule: 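Active when the median/MAD z-score for overall luciferase is greater than 3; a gene was taken forward for validation with new siRNAs if at least two of its three siRNAs passed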
Calls: active = raised luciferase; inactive = no rise

target,reagent,"total luciferase, z-score","total luciferase, % of control","luciferase per cell, z-score","viable cells, % of control",activity call
PSTPIP1,1,3.88,159,2.85,83.9,active
PSTPIP1,2,-0.414,73.7,-1.29,116,inactive
PSTPIP1,3,-0.0722,80.5,0.471,79.4,inactive
STN1,1,1.71,116,1.78,80.9,inactive
STN1,2,0.467,91.2,0.36,92.7,inactive
STN1,3,0.525,92.3,0.142,99.4,inactive
PLOD2,1,0.283,87.5,-0.0841,100,inactive
PLOD2,2,2.06,123,2.33,74.3,inactive
PLOD2,3,-0.842,65.1,-0.639,86.1,inactive
SURF6,1,-0.631,69.3,-0.705,93.3,inactive
SURF6,2,0.347,88.8,0.121,96.1,inactive
SURF6,3,0.37,89.2,-0.293,108,inactive
RPS26P28,1,-3.44,13.6,-4.73,52.6,inactive
RPS26P28,2,0.517,92.2,0.614,87.6,inactive
RPS26P28,3,-2.81,26,-1.66,45.1,inactive
KIF19BP,1,3.41,150,1.67,108,active
KIF19BP,2,-0.159,78.7,-0.103,90.4,inactive
KIF19BP,3,1.35,109,0.121,118,inactive
CDCA3,1,2.49,131,1.48,99.3,inactive
CDCA3,2,2.43,130,2.59,73.5,inactive
CDCA3,3,0.85,98.8,1.03,84.2,inactive
MORN4,1,-0.466,72.6,-0.356,89.1,inactive
MORN4,2,-0.602,69.9,0.724,64.6,inactive
MORN4,3,-0.568,70.6,-0.144,81.9,inactive

3 entries already listed, sorted by “total luciferase, z-score”, descending.
target,reagent,"total luciferase, z-score","total luciferase, % of control","luciferase per cell, z-score","viable cells, % of control",activity call
KIF19BP,1,3.41,150,1.67,108,active
KIF19BP,2,-0.159,78.7,-0.103,90.4,inactive
RPS26P28,3,-2.81,26,-1.66,45.1,inactive
